PubChem BioAssay AID1053208 – Peter MacCallum Cancer Centre | 2014
This is one part, drawn at random, of about 17,000 deposited reagents. Over the whole deposit, 788 (4.7%) were called active. 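Calls rest on z-score classes alone; an extra cut-off of viability at most 70% of control was not applied to them.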 Some reagents were tested in more than one well and are listed for each.

Assay: 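Find knock-downs that sensitise mouse osteosarcoma cells to doxorubicin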 (primary screen)
Cell system: mouse osteosarcoma cells, early-passage culture from an engineered mouse model of fibroblastic bone tumour
Reagents: siRNA pool against mouse genes, 40 nM
Time to read-out: about 120 h (48 h before drug, then 72 h with drug)
Treatment: doxorubicin 100 nM for 72 h, roughly 30-40% inhibitory dose
Read-out: 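Luminescent ATP signal taken as viability with or without 100 nM doxorubicin for 72 h; mean of two wells set against non-targeting siRNA and turned into robust z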
Scale: viability z-score with doxorubicin and doxorubicin viability vs non-targeting: higher = more viable cells under doxorubicin; viability z-score without drug: higher = more viable cells with knock-down alone; z-score of drug to no-drug ratio: higher = less drug sensitisation by knock-down
Call rule: 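a pool counts as active when its viability z-score with doxorubicin is -2 or below and its z-score without drug lies between -2 and 2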

| gene knocked down | combined z-score class | viability z-score with doxorubicin | viability z-score without drug | z-score of drug to no-drug ratio | doxorubicin viability vs non-targeting | Call |
| --- | --- | --- | --- | --- | --- | --- |
| Rxfp4 | no change with or without drug | 0.22 | -0.17 | 0.45 | 0.96 | inactive |
| Acrbp | no change with or without drug | 0.22 | 0.84 | -0.22 | 0.96 | inactive |
| Gckr | low cell count with doxorubicin only | -2.02 | -1.69 | -1.01 | 0.76 | active |
| Slc35e1 | no change with or without drug | -0.45 | 0.51 | -0.67 | 0.9 | inactive |
| Hipk3 | no change with or without drug | 0.22 | 1.35 | -0.56 | 0.96 | inactive |
| Raet1e | no change with or without drug | 0.9 | 0.84 | 0.45 | 1.02 | inactive |
| Cdc37l1 | no change with or without drug | -1.57 | -0.51 | -1.24 | 0.8 | inactive |
| Zfp668 | no change with or without drug | -1.01 | -0.67 | -0.56 | 0.85 | inactive |
| Zfp54 | no change with or without drug | -0.9 | 0.51 | -1.12 | 0.86 | inactive |
| Dnajb3 | no change with or without drug | -1.35 | 1.52 | -2.14 | 0.82 | inactive |
| Atp23 | no change with or without drug | -0.45 | -0.17 | -0.22 | 0.9 | inactive |
| Gltpd2 | no change with or without drug | 0.67 | 0.34 | 0.56 | 1 | inactive |
| Nt5e | no change with or without drug | -1.57 | -1.18 | -0.79 | 0.8 | inactive |
| 5730405M06RIK | low cell count with doxorubicin only | -2.25 | 0.84 | -2.7 | 0.74 | active |
| Camk1d | no change with or without drug | -0.67 | -0.51 | -0.22 | 0.88 | inactive |
| Gad1 | no change with or without drug | -0.67 | 0.34 | -0.79 | 0.88 | inactive |
| Rest | no change with or without drug | -0.9 | 0.17 | -0.9 | 0.86 | inactive |
| Tbc1d4 | no change with or without drug | 0.22 | 0.51 | 0 | 0.96 | inactive |
| Bend7 | no change with or without drug | -1.57 | 0.84 | -2.02 | 0.8 | inactive |
| Sdk1 | no change with or without drug | -0.56 | -1.85 | 0.9 | 0.89 | inactive |
| Usp12 | no change with or without drug | -0.67 | -0.51 | -0.22 | 0.88 | inactive |
| Ppox | no change with or without drug | 0.67 | -0.84 | 1.46 | 1 | inactive |
| Bmp6 | no change with or without drug | -0.22 | -1.18 | 0.79 | 0.92 | inactive |
| Pappa | no change with or without drug | -0.22 | -0.84 | 0.45 | 0.92 | inactive |
| Slc35h1 | no change with or without drug | -1.12 | 0.51 | -1.35 | 0.84 | inactive |
| Map3k3 | no change with or without drug | 0.9 | 0.84 | 0.45 | 1.02 | inactive |
| Relch | no change with or without drug | 0.22 | 0.67 | -0.11 | 0.96 | inactive |
| Pdcl | no change with or without drug | 0.56 | 0.84 | 0.11 | 0.99 | inactive |
| Fermt2 | low cell count with and without drug | -2.92 | -4.55 | 0.22 | 0.68 | inactive |
| Ankrd10 | no change with or without drug | 0.22 | 0.84 | -0.22 | 0.96 | inactive |
| Mapk14 | no change with or without drug | -0.67 | -1.35 | 0.34 | 0.88 | inactive |
| Sytl1 | no change with or without drug | 0 | 0.84 | -0.45 | 0.94 | inactive |
| Svs3b | high cell count without drug only | 1.01 | 2.02 | -0.22 | 1.03 | inactive |
| Or4c11b | no change with or without drug | -0.67 | -1.69 | 0.67 | 0.88 | inactive |
| Cfap95 | no change with or without drug | -0.11 | 0.51 | -0.34 | 0.93 | inactive |
| Rab31 | no change with or without drug | 0.67 | 0.34 | 0.56 | 1 | inactive |
| Tmem69 | no change with or without drug | 0.56 | -1.18 | 1.57 | 0.99 | inactive |
| Sh3bp4 | no change with or without drug | -0.9 | -1.85 | 0.45 | 0.86 | inactive |
| BC043934 | low cell count with and without drug | -2.59 | -2.53 | -1.01 | 0.71 | inactive |
| Tmod1 | high cell count with and without drug | 2.59 | 3.54 | 0.34 | 1.17 | inactive |
| Bricd5 | no change with or without drug | 0.45 | 0.51 | 0.22 | 0.98 | inactive |
| Tmprss11f | no change with or without drug | 0.9 | 0.67 | 0.56 | 1.02 | inactive |
| Pnpla7 | no change with or without drug | 0.9 | -0.17 | 1.24 | 1.02 | inactive |
| Asb7 | no change with or without drug | -1.69 | -0.67 | -1.24 | 0.79 | inactive |
| Pck2 | no change with or without drug | 0 | 0.34 | -0.11 | 0.94 | inactive |
| Pck2 | no change with or without drug | -0.34 | 0.51 | -0.56 | 0.91 | inactive |
| Cnst | low cell count without drug only | -0.22 | -2.53 | 1.91 | 0.92 | inactive |
| Dnal4 | no change with or without drug | -0.67 | 0.34 | -0.79 | 0.88 | inactive |
| 3110040N11Rik | no change with or without drug | 1.35 | 0.51 | 1.12 | 1.06 | inactive |
| Abcb9 | no change with or without drug | 0 | -0.51 | 0.45 | 0.94 | inactive |
| Ostc | no change with or without drug | -0.67 | 0.51 | -0.9 | 0.88 | inactive |
| Dhrs3 | no change with or without drug | 0.34 | 1.18 | -0.34 | 0.97 | inactive |
| Ifi27l2b | no change with or without drug | 0 | 1.18 | -0.67 | 0.94 | inactive |
| Rab14 | no change with or without drug | -0.67 | -0.34 | -0.34 | 0.88 | inactive |
| Arl16 | high cell count without drug only | 1.8 | 2.87 | 0 | 1.1 | inactive |
| Mt4 | no change with or without drug | -0.11 | -1.18 | 0.9 | 0.93 | inactive |
| Prss22 | no change with or without drug | -0.22 | -0.67 | 0.34 | 0.92 | inactive |
| Scd4 | no change with or without drug | -0.34 | 1.35 | -1.12 | 0.91 | inactive |
| Abr | no change with or without drug | 1.01 | 1.52 | 0.11 | 1.03 | inactive |
| Sgsm2 | no change with or without drug | 1.01 | -0.17 | 1.35 | 1.03 | inactive |
| Tmem186 | low cell count with doxorubicin only | -2.02 | -0.84 | -1.57 | 0.76 | active |
| Ibtk | no change with or without drug | -0.45 | -1.52 | 0.79 | 0.9 | inactive |
| Ggact | high cell count with doxorubicin only | 2.02 | 0.17 | 2.14 | 1.12 | inactive |
